PubChem BioAssay AID493246, Drosophila RNAi Screening Center – 2011

- Aim: 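Genome-wide search for dsRNAs that reduce cell number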 (primary screen)
- System: Drosophila Kc and S2R+ cells
- Knock-down reagent: long dsRNA against Drosophila genes
- Measurement: 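Cell number per well after knock-down, printed as raw plate values; calls were based on per-plate z-scores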
- Direction: Kc cell number and S2R+ cell number: higher = more cells remaining
- Rule for the call: 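Active when the per-plate z-score of cell number is 3 or more in the direction of fewer cells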
The screen tested about 21,000 reagents; below is an unselected part of those that have a named target and a result. Of all reagents, 429 (2%) are marked active. 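Values are raw and not normalised between plates; calls rest on per-plate z-scores that were not deposited.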 A number with no mark means an inactive call. No sequences are given here. Not stated in the record: the amount of reagent, the time to read-out.

CG17472 [DRSC02622] → Kc cell number, rep 1: 1.62e6; Kc cell number, rep 2: 1.76e6; S2R+ cell number, rep 1: 1.35e6; S2R+ cell number, rep 2: 2.92e5
CSN5 [DRSC16592] → Kc cell number, rep 1: 1.74e6; Kc cell number, rep 2: 1.74e6; S2R+ cell number, rep 1: 1.26e6; S2R+ cell number, rep 2: 1.23e6
CG18636 [DRSC02685] → Kc cell number, rep 1: 1.46e6; Kc cell number, rep 2: 1.58e6; S2R+ cell number, rep 1: 1.25e6; S2R+ cell number, rep 2: 1.36e6
ihog [DRSC03157] → Kc cell number, rep 1: 1.31e6; Kc cell number, rep 2: 1.34e6; S2R+ cell number, rep 1: 6.47e5; S2R+ cell number, rep 2: 7.65e5
CG13004 [DRSC19523] → Kc cell number, rep 1: 1.42e6; Kc cell number, rep 2: 1.47e6; S2R+ cell number, rep 1: 1.10e6; S2R+ cell number, rep 2: 1.16e6
CG6813 [DRSC16122] → Kc cell number, rep 1: 1.33e6; Kc cell number, rep 2: 1.44e6; S2R+ cell number, rep 1: 1.33e6; S2R+ cell number, rep 2: 1.38e6
fipi [DRSC00465] → Kc cell number, rep 1: 1.57e6; Kc cell number, rep 2: 1.52e6; S2R+ cell number, rep 1: 8.00e5; S2R+ cell number, rep 2: 9.37e5

2 entries from above, arranged by “Kc cell number, rep 2”, highest first:
CG18636 [DRSC02685] → Kc cell number, rep 1: 1.46e6; Kc cell number, rep 2: 1.58e6; S2R+ cell number, rep 1: 1.25e6; S2R+ cell number, rep 2: 1.36e6
ihog [DRSC03157] → Kc cell number, rep 1: 1.31e6; Kc cell number, rep 2: 1.34e6; S2R+ cell number, rep 1: 6.47e5; S2R+ cell number, rep 2: 7.65e5

More results follow.
Cdk5alpha [DRSC03290] → Kc cell number, rep 1: 1.43e6; Kc cell number, rep 2: 1.54e6; S2R+ cell number, rep 1: 1.15e6; S2R+ cell number, rep 2: 1.26e6
CG16749 [DRSC15146] → Kc cell number, rep 1: 1.68e6; Kc cell number, rep 2: 1.63e6; S2R+ cell number, rep 1: 1.29e6; S2R+ cell number, rep 2: 1.44e6
CG16741 [DRSC06622] → Kc cell number, rep 1: 1.76e6; Kc cell number, rep 2: 1.76e6; S2R+ cell number, rep 1: 1.16e6; S2R+ cell number, rep 2: 1.40e6
beat-Ic [DRSC01524] → Kc cell number, rep 1: 1.48e6; Kc cell number, rep 2: 1.52e6; S2R+ cell number, rep 1: 9.65e5; S2R+ cell number, rep 2: 1.19e6
beat-Ic [DRSC03491] → Kc cell number, rep 1: 1.63e6; Kc cell number, rep 2: 1.67e6; S2R+ cell number, rep 1: 1.24e6; S2R+ cell number, rep 2: 1.46e6
CG31792 [DRSC02604] → Kc cell number, rep 1: 1.51e6; Kc cell number, rep 2: 1.66e6; S2R+ cell number, rep 1: 1.33e6; S2R+ cell number, rep 2: 3.11e5
bora [DRSC10744] → Kc cell number, rep 1: 1.46e6; Kc cell number, rep 2: 1.50e6; S2R+ cell number, rep 1: 9.98e5; S2R+ cell number, rep 2: 1.04e6
CG31205 [DRSC13438] → Kc cell number, rep 1: 1.38e6; Kc cell number, rep 2: 1.46e6; S2R+ cell number, rep 1: 8.58e5; S2R+ cell number, rep 2: 9.49e5
Axud1 [DRSC00270] → Kc cell number, rep 1: 1.35e6; Kc cell number, rep 2: 1.45e6; S2R+ cell number, rep 1: 1.04e6; S2R+ cell number, rep 2: 1.14e6
Vlet [DRSC19845] → Kc cell number, rep 1: 5.15e5; S2R+ cell number, rep 1: 7.99e5
PIP5K59B [DRSC04290] → Kc cell number, rep 1: 1.34e6; Kc cell number, rep 2: 1.37e6; S2R+ cell number, rep 1: 1.00e6; S2R+ cell number, rep 2: 1.11e6
PIP5K59B [DRSC04403] → Kc cell number, rep 1: 1.53e6; Kc cell number, rep 2: 1.54e6; S2R+ cell number, rep 1: 1.31e6; S2R+ cell number, rep 2: 1.38e6
eater [DRSC15969] → Kc cell number, rep 1: 1.50e6; Kc cell number, rep 2: 1.64e6; S2R+ cell number, rep 1: 9.79e5; S2R+ cell number, rep 2: 1.08e6
CG17028 [DRSC10239] → Kc cell number, rep 1: 1.27e6; Kc cell number, rep 2: 1.22e6; S2R+ cell number, rep 1: 1.23e6; S2R+ cell number, rep 2: 1.34e6
